Data as given in the supplement of paper PMC9454738.
Structures can show the parent of a compound that is named as a salt. ± gives the standard deviation of the averaged measurements. The list shows a part of the results. Single values are uncertain here, since repeats match poorly.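 Test systems: triple-negative MDA-MB-231 breast cancer cells and their brain-metastatic MDA-MB-231BRM derivative, each stably carrying empty vector, full-length GLI1 or truncated tGLI1. Viability after 48 h was read by CellTiter-Blue and expressed against 1% DMSO vehicle. A compound was tGLI1-selective if it lowered viability 20% more in tGLI1 cells than in vector and GLI1 cells.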

Legend:
Experiment in all cases: cell viability relative to vehicle (DMSO) control (fraction); higher = more viable cells (less growth inhibition)
Conditions in all cases: treatment time 48 h
MDA-MB-231 GLI1 = test system: MDA-MB-231 GLI1
MDA-MB-231 Vector = test system: MDA-MB-231 Vector
MDA-MB-231 tGLI1 = test system: MDA-MB-231 tGLI1
MDA-MB-231BRM GLI1 = test system: MDA-MB-231BRM GLI1
MDA-MB-231BRM Vector = test system: MDA-MB-231BRM Vector
MDA-MB-231BRM tGLI1 = test system: MDA-MB-231BRM tGLI1

SMILES	cell viability (MDA-MB-231 GLI1; 0.05 µM)	cell viability (MDA-MB-231 GLI1; 0.5 µM)	cell viability (MDA-MB-231 GLI1; 5 µM)	cell viability (MDA-MB-231 Vector; 0.05 µM)	cell viability (MDA-MB-231 Vector; 0.5 µM)	cell viability (MDA-MB-231 Vector; 5 µM)	cell viability (MDA-MB-231 tGLI1; 0.05 µM)	cell viability (MDA-MB-231 tGLI1; 0.5 µM)	cell viability (MDA-MB-231 tGLI1; 5 µM)	cell viability (MDA-MB-231BRM GLI1; 0.05 µM)	cell viability (MDA-MB-231BRM GLI1; 0.5 µM)	cell viability (MDA-MB-231BRM GLI1; 5 µM)	cell viability (MDA-MB-231BRM Vector; 0.05 µM)	cell viability (MDA-MB-231BRM Vector; 0.5 µM)	cell viability (MDA-MB-231BRM Vector; 5 µM)	cell viability (MDA-MB-231BRM tGLI1; 0.05 µM)	cell viability (MDA-MB-231BRM tGLI1; 0.5 µM)	cell viability (MDA-MB-231BRM tGLI1; 5 µM)
CN1CCN(c2cccc(Nc3nc4c(-c5ccc(S(C)(=O)=O)cc5)cccn4n3)c2)CC1	1.2	1.17	0.888	1.3	1.2	0.755	1.35	1.17	0.855	1.02	0.992	0.901	1.01	0.997	0.406	1.07	0.964	0.785
Cc1[nH]nc2ccc(-c3cncc(OC[C@@H](N)Cc4ccccc4)c3)cc12	0.686	0.446	0.0699	0.795	0.474	0.168	1.02	0.621	0.0973	1.05	1.23	0.957	1.12	1.14	0.914	1.05	1.17	0.829
CC[C@]1(O)C[C@@H]2CN(CCc3c([nH]c4ccccc34)[C@@](C(=O)OC)(c3cc4c(cc3OC)N(C)[C@H]3[C@@](O)(C(=O)OC)[C@H](OC(C)=O)[C@]5(CC)C=CCN6CC[C@]43[C@@H]65)C2)C1 [Vinblastine]	0.145	-0.0795	-0.128	-0.0186	-0.385	-0.376	0.0778	-0.177	-0.202	0.879	0.82	0.755	0.901	0.855	0.809	0.881	0.767	0.77
C[C@@H](NCCCc1cccc(C(F)(F)F)c1)c1cccc2ccccc12 [AMG-073 HCl (Cinacalcet hydrochloride)]	1.25	1	0.369	0.909	0.939	0.00244	1.12	0.938	0.233	1.06	1.05	0.868	1.02	1.03	0.961	1.03	1.05	0.998
Nc1nc(F)nc2c1ncn2[C@@H]1O[C@H](COP(=O)(O)O)[C@@H](O)[C@@H]1O [Fludarabine Phosphate (Fludara)]	1.07	1.05	1.15	1.06	1.03	1.05	1.03	1.08	0.902	0.741	0.173	-0.00292	0.66	0.221	0.0298	0.72	0.243	0.0566
Cc1c(CN2CCN(C(=O)[C@H](C)O)CC2)sc2c(N3CCOCC3)nc(-c3cnc(N)nc3)nc12	1.06	0.666	0.243	1.04	0.598	0.495	1.21	0.542	0.25	0.971	1.02	0.809	0.958	1.02	0.73	1	0.987	0.667
COc1cc2ncnc(Oc3cccc(NC(=O)Nc4cc(C(C)(C)C(F)(F)F)on4)c3)c2cc1OC	1.93	1.89	0.794	1.07	0.896	0.467	1.18	0.939	0.5	0.81	0.779	0.699	0.95	0.781	0.749	1.19	1.14	1.12
FC(F)c1nc2ccccc2n1-c1nc(N2CCOCC2)nc(N2CCOCC2)n1	1.2	1.28	0.402	1.37	0.79	0.337	1.07	1.02	0.246	0.877	0.75	0.671	0.824	0.795	0.703	0.88	0.794	0.583
Cn1sc(=O)n(Cc2ccccc2)c1=O	1.13	1.48	0.719	1.44	1.42	0.752	1.29	1.39	0.683	0.934	0.929	0.944	1	1.05	1.06	1	0.961	0.91
C[C@H](Nc1ncnc2nc[nH]c12)c1cc2cccc(Cl)c2c(=O)n1-c1ccccc1	1.03	1.45	1.1	1.22	1.26	1.15	1.29	1.29	1.03	0.976	0.905	0.95	0.977	1.06	1.01	0.985	0.971	0.958
CNC(=O)c1cc(Oc2ccc3nc(N[C@@H]4CCCC[C@H]4O)sc3c2)ccn1	1.25	1.96	1.35	0.747	0.617	0.609	0.67	0.774	0.895	0.5	0.495	0.37	0.555	0.434	0.394	0.64	0.665	0.591
Nc1cccc(-c2cc3c(Oc4cccc(O)c4)ncnc3[nH]2)c1	1.4	1.31	0.627	1.88	1.17	0.499	1.22	1.24	0.518	1.14	1.1	1.06	1.14	1.01	1.13	0.93	0.73	1
CS(=O)(=O)N1CCc2c(-c3cnc(N)nc3)nc(N3CCOCC3)nc21	1.07	1.04	0.3	1.11	1.08	0.449	1.22	0.938	0.29	0.968	0.963	0.867	1.03	1.02	0.801	1.04	1.02	0.644
COc1ccc(-c2ccc3c(N4CCOCC4)nc(N4C[C@@H](C)O[C@@H](C)C4)nc3n2)cc1CO	0.936	0.709	0.386	1.31	0.653	0.344	0.812	0.682	0.324	1.02	0.828	0.399	0.941	0.804	0.457	0.875	0.857	0.401
C=CC(=O)Nc1cccc(Nc2nc(Nc3ccc(N4CCN(C(C)=O)CC4)cc3OC)ncc2C(F)(F)F)c1	1.29	1.53	0.667	1.44	1.36	0.604	1.48	1.29	0.775	0.976	0.913	0.814	1.1	0.975	0.91	0.968	0.951	0.684
FC(F)(F)c1ccc(/C=C/c2nc(COc3ccc(CCCCn4ccnn4)cc3)co2)cc1 [Mubritinib (TAK 165)]	1.6	0.861	1.74	1.15	1.5	1.66	1.42	1.46	1.5	1.28	1.24	1.03	0.734	1.17	1.1	0.645	1.16	1.06
C=CC(=O)Nc1cccc(Oc2nc(Nc3ccc(N4CCN(C)CC4)cc3)ncc2Cl)c1	1.28	1.04	0.363	0.683	0.91	0.3	0.825	1	0.314	1.06	0.993	0.985	1.01	1.01	0.979	1.04	1.04	0.956
N#CC[C@H](C1CCCC1)n1cc(-c2ncnc3[nH]ccc23)cn1	1.25 ± 0.05	1.3 ± 0.13	1.69 ± 0.2	1.44 ± 0.66	1.29 ± 0.048	1.57 ± 0.25	1.14 ± 0.09	1.3 ± 0.072	1.36 ± 0.019	1.11 ± 0.073	1.05 ± 0.068	1 ± 0.078	1.07 ± 0.069	1.04 ± 0.025	1.03 ± 0.096	1.03 ± 0.019	0.871 ± 0.19	0.904 ± 0.34
CCn1c(-c2nonc2N)nc2c(C#CC(C)(C)O)ncc(OC[C@H]3CCCNC3)c21	1.37	1.7	1.44	1.41	1.3	1.05	1.23	1.42	0.979	0.957	0.933	0.934	0.899	0.982	0.999	0.951	0.957	0.912
CCOC(=O)c1cnc2ccc(-c3cncc(NS(=O)(=O)c4ccccc4)c3)cn12	1.1	0.838	0.0733	0.608	0.228	-0.0158	0.637	0.292	-0.0267	0.605	0.637	0.538	0.595	0.661	0.528	0.78	0.993	0.872
CC(C)n1nc(-c2ccc3oc(N)nc3c2)c2c(N)ncnc21	0.45	0.335	0.14	0.494	0.354	0.104	0.449	0.33	0.171	0.967	0.88	0.828	0.97	0.877	0.337	0.855	0.771	0.722
Oc1ccc(-c2nc(-c3ccc(F)cc3)c(-c3ccncc3)[nH]2)cc1	1.13	1.43	1.07	1.29	1.09	0.87	1.06	1.31	0.808	0.92	0.88	0.89	0.846	0.85	0.856	0.933	0.892	0.912
CC1(COc2ccc3c(c2)ncn3-c2ccc3cccc(N4CCC(N)CC4)c3n2)COC1	1.11	0.963	0.111	0.93	0.913	0.277	1.23	0.824	0.169	1.04	1.15	0.985	1.1	1.11	0.971	1.05	1.24	0.902
O=C(COc1ccc(Cl)cc1)NC1CCC(NC(=O)COc2ccc(Cl)cc2)CC1 (stereo not drawn) [ISRIB (trans-isomer)]	1.02	1.4	1.07	0.68	0.706	0.713	0.601	0.613	0.67	0.572	0.467	0.438	0.615	0.53	0.468	0.761	0.76	0.762
O=C1c2ccc(Nc3ccc(F)cc3F)cc2CCc2ccc(OC[C@H](O)CO)cc21 [Skepinone-L]	1.52	1.69	0.705	1.46	1.43	0.912	1.34	1.52	0.956	1.08	1	0.973	1.17	1.06	1.02	0.978	1.04	0.949
Cc1cc(C(C)Nc2ccccc2)c2nc(N3CCOCC3)cc(=O)n2c1 (stereo not drawn)	0.944	1.28	0.898	0.647	0.975	0.772	1.02	1.12	0.545	0.983	0.932	0.939	0.924	0.904	0.933	0.969	0.941	1.05

Quoted at random: 2 entries already listed, in no set order.
SMILES	cell viability (MDA-MB-231 GLI1; 0.05 µM)	cell viability (MDA-MB-231 GLI1; 0.5 µM)	cell viability (MDA-MB-231 GLI1; 5 µM)	cell viability (MDA-MB-231 Vector; 0.05 µM)	cell viability (MDA-MB-231 Vector; 0.5 µM)	cell viability (MDA-MB-231 Vector; 5 µM)	cell viability (MDA-MB-231 tGLI1; 0.05 µM)	cell viability (MDA-MB-231 tGLI1; 0.5 µM)	cell viability (MDA-MB-231 tGLI1; 5 µM)	cell viability (MDA-MB-231BRM GLI1; 0.05 µM)	cell viability (MDA-MB-231BRM GLI1; 0.5 µM)	cell viability (MDA-MB-231BRM GLI1; 5 µM)	cell viability (MDA-MB-231BRM Vector; 0.05 µM)	cell viability (MDA-MB-231BRM Vector; 0.5 µM)	cell viability (MDA-MB-231BRM Vector; 5 µM)	cell viability (MDA-MB-231BRM tGLI1; 0.05 µM)	cell viability (MDA-MB-231BRM tGLI1; 0.5 µM)	cell viability (MDA-MB-231BRM tGLI1; 5 µM)
CC(C)n1nc(-c2ccc3oc(N)nc3c2)c2c(N)ncnc21	0.45	0.335	0.14	0.494	0.354	0.104	0.449	0.33	0.171	0.967	0.88	0.828	0.97	0.877	0.337	0.855	0.771	0.722
CNC(=O)c1cc(Oc2ccc3nc(N[C@@H]4CCCC[C@H]4O)sc3c2)ccn1	1.25	1.96	1.35	0.747	0.617	0.609	0.67	0.774	0.895	0.5	0.495	0.37	0.555	0.434	0.394	0.64	0.665	0.591
